These results are taken from paper PMC11186203.

Results are given in words; binding and its absence hold for the method and conditions named. In cells and extracts the contact can be indirect. A result given as binding can be weak or reduced; the word gives no strength.

The target in this assay is His-AR-NTD (human). The assay is described as follows: co-IP; HEK293T cells transfected with His-AR (full length), His-AR-NTD, His-AR-DBD, His-AR-LBD or empty vector, lysed and precipitated by the His-tag or with anti-RACGAP1 antibody, then blotted (the legend calls it a pull-down).

B1: RACGAP1 in HEK293T cell lysate (protein, UniProt Q9H0H5 1-632)
chain: MDTMMLNVRNLFEQLVRRVEILSEGNEVQFIQLAKDFEDFRKKWQRTDHELGKYKDLLMKAETERSALDVKLKHARNQVDVEIKRRQRAEADCEKLERQIQLIREMLMCDTSGSIQLSEEQKSALAFLNRGQPSSSNAGNKRLSTIDESGSILSDISFDKTDESLDWDSSLVKTFKLKKREKRRSTSRQFVDGPPGPVKKTRSIGSAVDQGNESIVAKTTVTVPNDGGPIEAVSTIETVPYWTRSRRKTGTLQPWNSDSTLNSRQLEPRTETDSVGTPQSNGGMRLHDFVSKTVIKPESCVPCGKRIKFGKLSLKCRDCRVVSHPECRDRCPLPCIPTLIGTPVKIGEGMLADFVSQTSPMIPSIVVHCVNEIEQRGLTETGLYRISGCDRTVKELKEKFLRVKTVPLLSKVDDIHAICSLLKDFLRNLKEPLLTFRLNRAFMEAAEITDEDNSIAAMYQAVGELPQANRDTLAFLMIHLQRVAQSPHTKMDVANLAKVFGPTIVAHAVPNPDPVTMLQDIKRQPKVVERLLSLPLEYWSQFMMVEQENIDPLHVIENSNAFSTPQTPDIKVSLLGPVTTPEHQLLKTPSSSSLSQRVRSTLTKNTPRFGSKSKSATNLGRQGNFFASPMLK
As for B1, the binding entry is “binds”.
